Experimental data from patent US20030003461.

Amino acid sequences for entries named in this document (tags omitted). Residues count along the entry.
UniProt P01137, 279-390: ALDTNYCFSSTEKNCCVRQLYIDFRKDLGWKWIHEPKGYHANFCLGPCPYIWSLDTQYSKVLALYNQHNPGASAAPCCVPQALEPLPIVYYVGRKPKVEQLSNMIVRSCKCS

Biological target: TGFβ1 (Homo sapiens) (UniProt P01137)
Experiment: filter binding
Settings: 2'-F pyrimidines, purified recombinant protein, protein details: recombinant human, R&D Systems; for binding result: NB
[1] = 3' fixed sequence removed, plateau 35%
[2] = 3' fixed sequence removed, plateau 22%
[3] = fixed sequences removed, plateau 10%
[4] = fixed sequences removed, plateau 5%

GGGAGGACGAUGCGGAGUGAAUUGCAUCCUUCGAUUACCUACUCUUUUGUGCCCCAGACGACUCGCCCGA [hyb ligand 11]
binding result (fixed sequences removed): no binding

GGGAGGGUUAACCGUUAAGACGGCUUUAUUUUGUCCCCAGACGACUCGCCCGA [30NtruNc 13]
Kd (3' fixed sequence removed, plateau 20%): 1.4 nM

GGGAGGACGAUGCGGGACGUAGCGGGAUGCUUUAACUUUGAUCGUCCAUCAUGUGCAGACGACUCGCCCGA [hyb ligand 50]
binding result (fixed sequences removed): no binding

GGGAGGACGAUGCGGAUCUGGGUGACCUCUGUGUACGUUUAUUUUUACCGACCCCAGACGACUCGCCCGA [hyb ligand 32]
binding result (fixed sequences removed): no binding

GGGAGGACGAUGCGGUUAGUUCGGGCUCAACACCGCUAAUAUUCUUCGUUCCCCCAGACGACUCGCCCGA [hyb ligand 33]
binding result (fixed sequences removed): no binding

GGGAGGGGAGGGUGUUUCGAACUGGGAAUUUUUGGUUUAGCCGUAUGCCCAGACGACUCGCCCGA [AG16]
Kd (3' fixed sequence removed, plateau 23%): 0.02 nM

GGGAGGGGAAUUUUUGGUAAAGCCAUAUGCCUCGCCACAGACGACUCGCCCGA [30NtruNc 27]
Kd (3' fixed sequence removed): > 30 nM

GGGAGGGUUUCAUGGAAUUUUUGGUAAAGCCGUAUGCCUCGCCACAGACGACUCGCCCGA [30NtruNc 3]
Kd (3' fixed sequence removed, plateau 70%): 30 nM

GGGAGGACGAUGCGGAAGGCAAGAAGCUUUAUGUGUCGCGUAACACAACUGUCCGCAGACGACUCGCCCGA [hyb ligand 56]
Kd (fixed sequences removed, plateau 30%): 4 nM

GGGAGGACGAUGCGGUAGUGAUGAACUUUUGCUGGAUUGGUUUUGAACCGUCCCCAGACGACUCGCCCGA [hyb ligand 16]
binding result (fixed sequences removed): no binding

GGGAGGACGAUGCGGUGCCUUAGCAUGAAUAUACUGAUGUAUAUUCUCUGCCCCAGACGACUCGCCCGA [hyb ligand 39]
binding result (fixed sequences removed): no binding

GGGAGGGAAUUUUUGUGUAGACGUAUGCCCUUUGCCCAGACGACUCGCCCGA [30NtruNc 23]
Kd [1]: 0.93 nM

GGGAGGACGAUGCGGGAUGUAGCGGGAUGCUUUAACUUUGAUCGUCCACCAUGUGCAGACGACUCGCCCGA [hyb ligand 53]
binding result (fixed sequences removed): no binding

GGGAGGGGAGGGGUGCCUUUAGCUUGGUCUGUUUAGUACAUUCCUCUGCCCCAGACGACUCGCCCGA [AG18]
Kd [2]: 1 nM

GGGAGGGUUUCAUGGAAUUUUUGGUUUAGCCGUAUGCCAGACGACUCGCCCGA [30NtruNc 6]
Kd [1]: 2 nM

GGGAGGGAAUUUUUGAUUUAGUCGUACGCCGCAUCCCCAGACGACUCGCCCGA [30NtruNc 38]
Kd (3' fixed sequence removed, plateau 17%): 0.2 nM

GGGAGGGGAGGGGUGCCUGUAGUCUUUGCAUCUUAUAAAUGCAAUCUGCCCCAGACGACUCGCCCGA [AG1]
Kd (3' fixed sequence removed, biphasic, plateau 14%, low-affinity Kd 0.5 nM, plateau 25%): 0.1 nM

GGGAGGACGAUGCGGUGCCUUUAGUCUGAAUCUUACCAUGAUUCUCUGCCGCAGACGACUCGCCCGA [hyb ligand 29]
Kd [3]: 0.8 nM

GGGAGGGGAGGGAUUCUGCCGAGUUAACGUCGGUGUCUGUAGCUUAUCCCCAGACGACUCGCCCGA [AG2]
Kd (3' fixed sequence removed, plateau 25%): 1 nM

GGGAGGGGACAGACGACUCGCCCGAGGGAUUUUACGUUCGUCUCGCGUCUCCCCAGACGACUCGCCCGA [AG7]
binding result (3' fixed sequence removed): no binding

GGGAGGGGAGGGAUUCUGCCGAGUUAAUUUCGGUGUCUGUAGCUUAUCCCCAGACGACUCGCCCGA [AG11]
Kd [2]: 1 nM

GGGAGGACGAUGCGGAUGCCUUUUGCCUUCAGGGUGUGAUUCCUUGAUCUGUCCGCAGACGACUCGCCCGA [hyb ligand 14,43a,71]
Kd [4]: 0.6 nM

GGGAGGACGAUGCGGUCUUUCGAACUGGGAAUUUUUGGUGUAGCCGUAUGCCCAGACGACUCGCCCGA [hyb ligand 59]
Kd (fixed sequences removed, plateau 40%): 0.5 nM

GGGAGAUUUUUGGUAAAGCCAGACGACUCGCCCGA [30NtruNc 18]
binding result (3' fixed sequence removed): no binding

GGGAGGACGAUGCGGAGUUUUGGGAUCGCCACAGAUCUUACUGUGAGCUACUGUGCAGACGACUCGCCCGA [hyb ligand 40]
Kd [4]: 3 nM

GGGAGGACGAUGCGGAAGACCGUUCCGAGUGGUACAAGUAAACCCCUGUGUUCCGCAGACGACUCGCCCGA [hyb ligand 31]
Kd (fixed sequences removed, plateau 60%): 2 nM

GGGAGGACGAUGCGGAUCUGAAUUUAUUCGUCUACAGUUACGCUGGGCCUUCCGCAGACGACUCGCCCGA [hyb ligand 51]
Kd [3]: 0.3 nM

For at least one entry, the source does not settle the construct or the ends of the probe. No signal at the amounts used counts as a negative.
